The list is a part of this screen's results and no random one: it is rich in T/C values a quarter to a half above the control, in often repeated tests (any T/C) and in doses without a T/C. Other doses and runs of a compound stand elsewhere. T/C is the treated group as % of the vehicle group. Some entries give survivors of the animals treated and no T/C: the source files T/C as zero there, which appears to mark a toxic dose or a test without result, not a measured value. Some survivor counts are full or nearly so, which does not show that the dose was tolerated: survival well below the control is almost never listed, so the zero probably covers shortened survival too. Survivors were counted at the toxicity check, usually on the fifth day, unless a day is given; later deaths do not show. Schedule codes are those of the source, taken here to give the interval after Q, in days (D) or hours (H), and the number of doses after X. Brackets with × give the number of equal values in this list. Some doses were run more than once; the values are given in rising order. For survival time, the PubChem record calls one and a half times the control and up active, and a quarter to a half above the control has no call in these data; cut-offs in other NCI protocols can differ. Some T/C values are followed by the survivors on the day toxicity was checked, most often the fifth; without a count, all were alive then.
Test system: P388 leukemia ip, CD2F1 mice, survival T/C
Assay: NCI In Vivo Anticancer Drug Screen. Data for tumor model P388 Leukemia (intraperitoneal) in CD2F1 (CDF1) mice
Details: T/C endpoint: median survival time, higher T/C = longer survival

Cc1c2ccncc2c(C)c2c1[nH]c1ccccc12
survivor count (dose: 50.0 mg/kg/injection, schedule: Q04DX003 (ip), vehicle: clinical formulation): 4 of 8
T/C (dose: 50.0 mg/kg/injection, schedule: Q04DX003 (ip), vehicle: distilled water + Tween-80, evaluated on day 30): 88, 139, 153, 160 (2×), 163, 166, 169, 175, 176, 177, 178, 180, 181, 184, 186, 187, 198, 203, 214, 215, 222 % of control
T/C (dose: 50.0 mg/kg/injection, schedule: Q04DX003 (ip), vehicle: distilled water + Tween-80, evaluated on day 35): 164 % of control
T/C (dose: 50.0 mg/kg/injection, schedule: Q04DX003 (ip), vehicle: distilled water + Tween-80, evaluated on day 45): 177 % of control
T/C (dose: 50.0 mg/kg/injection, schedule: Q04DX003 (ip), vehicle: distilled water + Tween-80, evaluated on day 60): 144 % of control
T/C (dose: 50.0 mg/kg/injection, schedule: Q04DX003 (ip), vehicle: saline with Tween-80): 158, 183, 189, 190, 236 % of control
T/C (dose: 50.0 mg/kg/injection, schedule: Q04DX003 (ip), vehicle: saline): 147, 166, 169, 192, 203 % of control
T/C (dose: 60.0 mg/kg/injection, schedule: Q04DX003 (ip), vehicle: saline with Tween-80): 204, 213, 215, 260 % of control
survivor count (dose: 64.0 mg/kg/injection, schedule: Q01DX005 (ip), vehicle: saline with Tween-80): 6 of 6
survivor count (dose: 64.0 mg/kg/injection, schedule: Q01DX005 (iv), vehicle: saline with Tween-80): 0 of 6
survivor count (dose: 64.0 mg/kg/injection, schedule: Q01DX005 (oral), vehicle: saline with Tween-80): 6 of 6
survivor count (dose: 80.0 mg/kg/injection, schedule: Q01DX005 (ip), vehicle: saline with Tween-80): 6 of 6
survivor count (dose: 80.0 mg/kg/injection, schedule: Q01DX005 (iv), vehicle: saline with Tween-80): 0 of 6
survivor count (dose: 80.0 mg/kg/injection, schedule: Q04DX003 (ip), vehicle: water): 3 of 6 and 5 of 6
survivor count (dose: 100.0 mg/kg/injection, schedule: Q01DX009 (ip), vehicle: saline with Tween-80): 6 of 6
T/C (dose: 100.0 mg/kg/injection, schedule: Q04DX002 (ip), vehicle: distilled water + Tween-80, evaluated on day 30): 179, 183, 185, 186, 187, 188, 189, 190, 204, 213 % of control
T/C (dose: 100.0 mg/kg/injection, schedule: Q04DX002 (ip), vehicle: distilled water + Tween-80, evaluated on day 35): 171 % of control
T/C (dose: 100.0 mg/kg/injection, schedule: Q04DX002 (ip), vehicle: saline with Tween-80, evaluated on day 30): 130, 161, 182, 190, 209 % of control
T/C (dose: 100.0 mg/kg/injection, schedule: Q04DX002 (ip), vehicle: saline with Tween-80, evaluated on day 45): 188 % of control
survivor count (dose: 100.0 mg/kg/injection, schedule: Q04DX003 (ip), vehicle: clinical formulation): 4 of 6 and 5 of 6
T/C (dose: 100.0 mg/kg/injection, schedule: Q04DX003 (ip), vehicle: distilled water + Tween-80, evaluated on day 30): 99, 105, 113, 118 (2×), 119, 121 [5 of 6 alive], 129, 130, 132, 133, 142, 145 (2×), 169, 181, 190, 205, 207, 209, 274 % of control
T/C (dose: 100.0 mg/kg/injection, schedule: Q04DX003 (ip), vehicle: distilled water + Tween-80, evaluated on day 35): 212 % of control
T/C (dose: 100.0 mg/kg/injection, schedule: Q04DX003 (ip), vehicle: distilled water + Tween-80, evaluated on day 45): 168 % of control
T/C (dose: 100.0 mg/kg/injection, schedule: Q04DX003 (ip), vehicle: distilled water + Tween-80, evaluated on day 60): 124 % of control
survivor count (dose: 100.0 mg/kg/injection, schedule: Q04DX003 (ip), vehicle: distilled water + Tween-80): 6 of 6
T/C (dose: 100.0 mg/kg/injection, schedule: Q04DX003 (ip), vehicle: saline with Tween-80, evaluated on day 30): 100, 109, 139, 186, 200 % of control
T/C (dose: 100.0 mg/kg/injection, schedule: Q04DX003 (ip), vehicle: saline with Tween-80, evaluated on day 45): 123, 132, 242 % of control
T/C (dose: 100.0 mg/kg/injection, schedule: Q04DX003 (ip), vehicle: saline): 161, 183, 198, 223, 288 % of control
T/C (dose: 100.0 mg/kg/injection, schedule: Q04DX003 (ip), vehicle: water): 130 % of control
survivor count (dose: 128.0 mg/kg/injection, schedule: Q01DX005 (ip), vehicle: saline with Tween-80): 6 of 6
survivor count (dose: 128.0 mg/kg/injection, schedule: Q01DX005 (iv), vehicle: saline with Tween-80): 0 of 6
survivor count (dose: 128.0 mg/kg/injection, schedule: Q01DX005 (oral), vehicle: saline with Tween-80): 6 of 6
T/C (dose: 200.0 mg/kg/injection, schedule: Q04DX002 (ip), vehicle: distilled water + Tween-80, evaluated on day 30): 100, 102, 107 [5 of 6 alive], 115, 120, 134, 140, 208 % of control
T/C (dose: 200.0 mg/kg/injection, schedule: Q04DX002 (ip), vehicle: distilled water + Tween-80, evaluated on day 35): 90 % of control [5 of 6 alive]
survivor count (dose: 200.0 mg/kg/injection, schedule: Q04DX002 (ip), vehicle: distilled water + Tween-80): 5 of 6 and 6 of 6
T/C (dose: 200.0 mg/kg/injection, schedule: Q04DX002 (ip), vehicle: saline with Tween-80, evaluated on day 30): 90, 205 [5 of 6 alive], 219, 228 % of control [5 of 6 alive]
T/C (dose: 200.0 mg/kg/injection, schedule: Q04DX002 (ip), vehicle: saline with Tween-80, evaluated on day 45): 98, 150, 172, 255 % of control
T/C (dose: 200.0 mg/kg/injection, schedule: Q04DX003 (ip), vehicle: distilled water + Tween-80, evaluated on day 30): 88, 89 (3×), 90, 93, 93 [5 of 6 alive], 94 (2×), 95, 105, 106, 112, 130 % of control [5 of 6 alive]
T/C (dose: 200.0 mg/kg/injection, schedule: Q04DX003 (ip), vehicle: distilled water + Tween-80, evaluated on day 35): 101 % of control
T/C (dose: 200.0 mg/kg/injection, schedule: Q04DX003 (ip), vehicle: distilled water + Tween-80, evaluated on day 60): 102 % of control
survivor count (dose: 200.0 mg/kg/injection, schedule: Q04DX003 (ip), vehicle: distilled water + Tween-80): 6 of 6 (3×)
T/C (dose: 200.0 mg/kg/injection, schedule: Q04DX003 (ip), vehicle: saline with Tween-80): 86, 91, 99, 109, 247 % of control
T/C (dose: 200.0 mg/kg/injection, schedule: Q04DX003 (ip), vehicle: saline): 113, 114, 150, 212, 238 % of control
T/C (dose: 200.0 mg/kg/injection, schedule: Q04DX003 (ip), vehicle: water): 125 % of control
survivor count (dose: 256.0 mg/kg/injection, schedule: Q01DX005 (oral), vehicle: saline with Tween-80): 6 of 6

From PubChem BioAssay AID330 (DTP/NCI, 2004)
